Measurements taken from article PMC5996148.
Some of the results follow.

Legend:
Test in all cases: protein microarray (ProtoArray v5.0), streptavidin-Alexa Fluor 647
Details in all cases: 3'-biotin; 20 mM Tris (pH 7.5), 5 mM MgCl2, 100 mM KCl, 0.1% Tween-20, A/T-rich and random oligonucleotide blockers; temperature not stated; high values mean tight binding
[1] = system: Zinc finger protein castor homolog 1 (human)
[2] = system: Zinc transporter 7 (human)
[3] = system: cAMP-dependent protein kinase inhibitor gamma (human)
[4] = system: cAMP-dependent protein kinase type I-beta regulatory subunit (human)
[5] = system: cAMP-dependent protein kinase type II-beta regulatory subunit (human)
[6] = system: cDNA FLJ30744 fis, clone FEBRA2000378. (human)
[7] = system: cDNA clone IMAGE:2906290, complete cds (human)
[8] = system: cDNA clone IMAGE:4292790 (human)
[9] = system: cDNA clone IMAGE:4396549 (human)
[10] = system: cDNA clone IMAGE:5263629 (human)
[11] = system: cDNA clone MGC:110973 IMAGE:6156156 (human)
[12] = system: cDNA clone MGC:12418 IMAGE:3934658, complete cds (human)
[13] = system: cDNA clone MGC:15478 IMAGE:2967661, complete cds (human)
[14] = system: cDNA clone MGC:16743 IMAGE:4130428 (human)
[15] = system: cDNA clone MGC:17055 IMAGE:4338834 (human)
[16] = system: cDNA clone MGC:23693 IMAGE:4767650 (human)
[17] = system: cDNA clone MGC:25008 IMAGE:4453355, complete cds (human)
[18] = system: cDNA clone MGC:31936 IMAGE:4765518, complete cds (human)
[19] = system: cDNA clone MGC:32654 IMAGE:4701898, complete cds (human)
[20] = system: cDNA clone MGC:34832 IMAGE:5203730 (human)

Q: “GGGGACAGGGGTATGGGGAGGGG [G4-3 biotinylated (CtG)]” was tested. Which binding signal [1] did it give?
A: The binding signal was -0.335 z-score.

Q: And the binding signal [2]?
A: Its binding signal is -0.32 z-score.

Q: What about the binding signal [3] of the same sequence?
A: Its binding signal is -0.339 z-score.

Q: What about the binding signal [4] of the same sequence?
A: The binding signal was -0.341 z-score.

Q: What about the binding signal [5] of the same sequence?
A: The binding signal was -0.336 z-score.

Q: What about the binding signal [6] of the same sequence?
A: The binding signal was -0.326 z-score.

Q: And the binding signal [7]?
A: Its binding signal is -0.337 z-score.

Q: And the binding signal [8]?
A: The binding signal was -0.34 z-score.

Q: And the binding signal [9]?
A: The binding signal was -0.338 z-score.

Q: What about the binding signal [10] of the same sequence?
A: The binding signal was -0.338 z-score.

Q: What about the binding signal [11] of the same sequence?
A: The binding signal was -0.32 z-score.

Q: What about the binding signal [12] of the same sequence?
A: The binding signal was -0.327 z-score.

Q: And the binding signal [13]?
A: Its binding signal is -0.334 z-score.

Q: What about the binding signal [14] of the same sequence?
A: The binding signal was -0.337 z-score.

Q: What about the binding signal [15] of the same sequence?
A: Its binding signal is -0.332 z-score.

Q: What about the binding signal [16] of the same sequence?
A: Its binding signal is -0.324 z-score.

Q: What about the binding signal [17] of the same sequence?
A: Its binding signal is -0.337 z-score.

Q: What about the binding signal [18] of the same sequence?
A: The binding signal was -0.332 z-score.

Q: And the binding signal [19]?
A: The binding signal was -0.336 z-score.

Q: What about the binding signal [20] of the same sequence?
A: Its binding signal is -0.32 z-score.
